Data on 14 molecules can be found in publication PMC4773067 (PLoS ONE, 2016).

Amino acid sequences for entries named in this document (tags omitted). Residues count along the entry.
UniProt P47872, residues 23-440: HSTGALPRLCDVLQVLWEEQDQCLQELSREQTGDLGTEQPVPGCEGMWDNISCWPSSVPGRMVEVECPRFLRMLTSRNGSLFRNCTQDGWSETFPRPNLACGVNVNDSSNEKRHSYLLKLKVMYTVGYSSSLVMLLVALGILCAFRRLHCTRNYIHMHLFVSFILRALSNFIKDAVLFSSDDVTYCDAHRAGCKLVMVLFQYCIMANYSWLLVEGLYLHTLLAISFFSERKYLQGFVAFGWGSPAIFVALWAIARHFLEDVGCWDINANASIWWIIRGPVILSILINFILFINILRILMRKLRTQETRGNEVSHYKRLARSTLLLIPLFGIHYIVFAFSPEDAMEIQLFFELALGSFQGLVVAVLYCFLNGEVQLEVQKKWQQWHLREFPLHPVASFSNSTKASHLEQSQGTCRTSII

These are yes or no findings as the source states them, for the method shown. In cells and extracts the contact can be indirect. Some entries that bind do so weakly or less than the wild type.

This assay deals with human secretin receptor (human) (UniProt P47872). The assay is described as follows: FRET or BRET; competitive binding at one concentration: 10,000 CHO-K1 cells with SNAPtag-hSR labelled with Lumi4-Tb, 500 nM labelled hSCT (h[Gly28, Alexa-Cys29]SCT) as acceptor, 10 μM unlabelled peptide, 4–8°C, 1 h, 384-well plates; only the binder purified. In general terms: BRET reads energy transfer from a luciferase to a nearby fluorophore.
Regarding FTSELSRLREGARLQRLLQGLV [hSCT_((6–27))], the binding result was “no binding (tested: 10 μM)”.
The result for HSDFTFTSELSRLREGARLQRLLQGLV (p-Cl,D-Phe at 4) [h[(p-Cl,D-Phe^4]SCT] reads “no binding (tested: 10 μM)”; that for HSFGTFTSELSRLREGARLQRLLQGLV (pCO2H-Phe at 3) [h[pCO2H-Phe^3]SCT], “no binding (tested: 10 μM)”; that for REGARLQRLLQGLV [Ct-SCT], “no binding (tested: 10 μM)”.
Under HSDGTFTSELSRL [Nt-SCT] stands “no binding (tested: 10 μM)”; under ASDGTFTSELSRLREGARLQRLLQGLV [h[Ala^1]SCT], “no binding (tested: 10 μM)”; under HSDYTFTSELSRLREGARLQRLLQGLV [h[Tyr^4]SCT], “no binding (tested: 10 μM)”.
Under HSDPTFTSELSRLREGARLQRLLQGLV [h[Pro^4]SCT] stands “no binding (tested: 10 μM)”.
On to HPDGTFTSELSRLREGARLQRLLQGLV [h[Pro^2]SCT], for which the binding result is “no binding (tested: 10 μM)”.
Consider HVDGLFTSELSKLRGSAVARSFTNAVL [Coelacanths SCT], for which the binding entry is recorded as “no binding (tested: 10 μM)”.
Regarding HSDGTFTSELSRLREGARLQRLLQGLVGC (Alexa Fluor 488 C5 maleimide on Cys29) [h[Gly^28, Alexa-Cys^29]SCT], the binding result is “binds”.
As to HVDGRFTSEFSRARGSAAIRKIINSALA [Xenopus SCT], the binding result is on record as “no binding (tested: 10 μM)”.
Regarding LSDGTFTSELSRLREGARLQRLLQGLV [h[Leu^1]SCT], the binding entry is “no binding (tested: 10 μM)”.
With HSDGLFTSEYSKMRGNAQVQKFIQNLM [Chicken SCT], the binding entry is “no binding (tested: 10 μM)”.
